Test results reported in the supplement of paper PMC8728848.
The other results are listed elsewhere or left out.

Legend:
Test in all cases: glycan array binding signal (z-score within array); higher = stronger binding
Details in all cases: glycan notation: IUPAC condensed, linker removed
[1] = biological target: GlcNAc(b1-2)Gal(b1-3)GalNAc
Method in brief: (§1)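 Glycan array data came from 3228 arrays in the Consortium for Functional Glycomics database, and only arrays with an available protein sequence were kept. Glycan names were put into IUPAC-condensed notation, and columns mapping to the same glycan were averaged. The binding signal is a within-array Z-score, averaged across arrays of one protein sequence run at different concentrations or buffers and across linkers. A negative Z-score can be read as non-binding.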

[2] = biological target: GlcNAc(b1-2)Man(a1-3)[GlcNAc(b1-2)Man(a1-6)]Man(b1-4)GlcNAc(b1-4)GlcNAc
Method in brief: as §1

[3] = biological target: GlcNAc(b1-2)Man(a1-3)[GlcNAc(b1-2)Man(a1-6)]Man(b1-4)GlcNAc(b1-4)[Fuc(a1-6)]GlcNAc
Method in brief: as §1

[4] = biological target: GlcNAc(b1-2)Man(a1-3)[GlcNAc(b1-4)][GlcNAc(b1-2)Man(a1-6)]Man(b1-4)GlcNAc(b1-4)GlcNAc
Method in brief: as §1

[5] = biological target: GlcNAc(b1-2)Man(a1-3)[GlcNAc(b1-4)][GlcNAc(b1-2)Man(a1-6)]Man(b1-4)GlcNAc(b1-4)[Fuc(a1-6)]GlcNAc
Method in brief: as §1

[6] = biological target: GlcNAc(b1-2)[GlcNAc(b1-4)]Man(a1-3)[GlcNAc(b1-2)Man(a1-6)]Man(b1-4)GlcNAc(b1-4)GlcNAc
Method in brief: as §1

[7] = biological target: GlcNAc(b1-2)[GlcNAc(b1-4)]Man(a1-3)[GlcNAc(b1-4)][GlcNAc(b1-2)Man(a1-6)]Man(b1-4)GlcNAc(b1-4)GlcNAc
Method in brief: as §1

[8] = biological target: GlcNAc(b1-2)[GlcNAc(b1-4)]Man(a1-3)[GlcNAc(b1-4)][GlcNAc(b1-2)[GlcNAc(b1-6)]Man(a1-6)]Man(b1-4)GlcNAc(b1-4)GlcNAc
Method in brief: as §1

[9] = biological target: GlcNAc(b1-2)[GlcNAc(b1-4)]Man(a1-3)[GlcNAc(b1-4)][GlcNAc(b1-2)[GlcNAc(b1-6)]Man(a1-6)]Man(b1-4)GlcNAc(b1-4)[Fuc(a1-6)]GlcNAc
Method in brief: as §1

[10] = biological target: GlcNAc(b1-2)[GlcNAc(b1-6)]Man(a1-6)[GlcNAc(b1-2)Man(a1-3)]Man(b1-4)GlcNAc(b1-4)GlcNAc
Method in brief: as §1

[11] = biological target: GlcNAc(b1-2)[GlcNAc(b1-6)]Man(a1-6)[GlcNAc(b1-2)Man(a1-3)]Man(b1-4)GlcNAc(b1-4)[Fuc(a1-6)]GlcNAc
Method in brief: as §1

[12] = biological target: GlcNAc(b1-2)[GlcNAc(b1-6)]Man(a1-6)[GlcNAc(b1-4)][GlcNAc(b1-2)Man(a1-3)]Man(b1-4)GlcNAc(b1-4)GlcNAc
Method in brief: as §1

[13] = biological target: GlcNAc(b1-3)Fuc
Method in brief: as §1

[14] = biological target: GlcNAc(b1-3)Gal
Method in brief: as §1

[15] = biological target: GlcNAc(b1-3)Gal(b1-3)GalNAc
Method in brief: as §1

[16] = biological target: GlcNAc(b1-3)Gal(b1-4)Glc
Method in brief: as §1

[17] = biological target: GlcNAc(b1-3)Gal(b1-4)GlcNAc
Method in brief: as §1

[18] = biological target: GlcNAc(b1-3)Gal(b1-4)GlcNAc(b1-2)Man(a1-3)[GlcNAc(b1-3)Gal(b1-4)GlcNAc(b1-2)Man(a1-6)]Man(b1-4)GlcNAc(b1-4)GlcNAc
Method in brief: as §1

[19] = biological target: GlcNAc(b1-3)Gal(b1-4)GlcNAc(b1-2)Man(a1-3)[GlcNAc(b1-3)Gal(b1-4)GlcNAc(b1-2)Man(a1-6)]Man(b1-4)GlcNAc(b1-4)[Fuc(a1-6)]GlcNAc
Method in brief: as §1

[20] = biological target: GlcNAc(b1-3)Gal(b1-4)GlcNAc(b1-2)[GlcNAc(b1-3)Gal(b1-4)GlcNAc(b1-6)]Man(a1-6)[GlcNAc(b1-3)Gal(b1-4)GlcNAc(b1-2)Man(a1-3)]Man(b1-4)GlcNAc(b1-4)GlcNAc
Method in brief: as §1

[21] = biological target: GlcNAc(b1-3)Gal(b1-4)GlcNAc(b1-3)Gal(b1-4)GlcNAc
Method in brief: as §1

[22] = biological target: GlcNAc(b1-3)Gal(b1-4)GlcNAc(b1-3)Gal(b1-4)GlcNAc(b1-2)Man(a1-3)[GlcNAc(b1-3)Gal(b1-4)GlcNAc(b1-3)Gal(b1-4)GlcNAc(b1-2)Man(a1-6)]Man(b1-4)GlcNAc(b1-4)GlcNAc
Method in brief: as §1

[23] = biological target: GlcNAc(b1-3)Gal(b1-4)GlcNAc(b1-3)Gal(b1-4)GlcNAc(b1-2)Man(a1-3)[GlcNAc(b1-3)Gal(b1-4)GlcNAc(b1-3)Gal(b1-4)GlcNAc(b1-2)Man(a1-6)]Man(b1-4)GlcNAc(b1-4)[Fuc(a1-6)]GlcNAc
Method in brief: as §1

[24] = biological target: GlcNAc(b1-3)Gal(b1-4)GlcNAc(b1-3)Gal(b1-4)GlcNAc(b1-2)[GlcNAc(b1-3)Gal(b1-4)GlcNAc(b1-3)Gal(b1-4)GlcNAc(b1-6)]Man(a1-6)[GlcNAc(b1-3)Gal(b1-4)GlcNAc(b1-3)Gal(b1-4)GlcNAc(b1-2)Man(a1-3)]Man(b1-4)GlcNAc(b1-4)[Fuc(a1-6)]GlcNAc
Method in brief: as §1

[25] = biological target: GlcNAc(b1-3)Gal(b1-4)GlcNAc(b1-3)Gal(b1-4)GlcNAc(b1-3)Gal(b1-4)GlcNAc(b1-2)Man(a1-3)[GlcNAc(b1-3)Gal(b1-4)GlcNAc(b1-3)Gal(b1-4)GlcNAc(b1-3)Gal(b1-4)GlcNAc(b1-2)Man(a1-6)]Man(b1-4)GlcNAc(b1-4)GlcNAc
Method in brief: as §1

[26] = biological target: GlcNAc(b1-3)Gal(b1-4)GlcNAc(b1-3)Gal(b1-4)GlcNAc(b1-3)Gal(b1-4)GlcNAc(b1-2)Man(a1-3)[GlcNAc(b1-3)Gal(b1-4)GlcNAc(b1-3)Gal(b1-4)GlcNAc(b1-3)Gal(b1-4)GlcNAc(b1-2)Man(a1-6)]Man(b1-4)GlcNAc(b1-4)[Fuc(a1-6)]GlcNAc
Method in brief: as §1

[27] = biological target: GlcNAc(b1-3)Gal(b1-4)GlcNAc(b1-3)Gal(b1-4)GlcNAc(b1-3)Gal(b1-4)GlcNAc(b1-2)[GlcNAc(b1-3)Gal(b1-4)GlcNAc(b1-3)Gal(b1-4)GlcNAc(b1-3)Gal(b1-4)GlcNAc(b1-6)]Man(a1-6)[GlcNAc(b1-3)Gal(b1-4)GlcNAc(b1-3)Gal(b1-4)GlcNAc(b1-3)Gal(b1-4)GlcNAc(b1-2)Man(a1-3)]Man(b1-4)GlcNAc(b1-4)[Fuc(a1-6)]GlcNAc
Method in brief: as §1

[28] = biological target: GlcNAc(b1-3)Gal(b1-4)GlcNAc(b1-3)Gal(b1-4)GlcNAc(b1-3)Gal(b1-4)GlcNAc(b1-3)Gal(b1-4)GlcNAc(b1-2)Man(a1-3)[GlcNAc(b1-3)Gal(b1-4)GlcNAc(b1-3)Gal(b1-4)GlcNAc(b1-3)Gal(b1-4)GlcNAc(b1-3)Gal(b1-4)GlcNAc(b1-2)Man(a1-6)]Man(b1-4)GlcNAc(b1-4)GlcNAc
Method in brief: as §1

[29] = biological target: GlcNAc(b1-3)Gal(b1-4)GlcNAc(b1-3)Gal(b1-4)GlcNAc(b1-3)Gal(b1-4)GlcNAc(b1-3)Gal(b1-4)GlcNAc(b1-2)Man(a1-3)[GlcNAc(b1-3)Gal(b1-4)GlcNAc(b1-3)Gal(b1-4)GlcNAc(b1-3)Gal(b1-4)GlcNAc(b1-3)Gal(b1-4)GlcNAc(b1-2)Man(a1-6)]Man(b1-4)GlcNAc(b1-4)[Fuc(a1-6)]GlcNAc
Method in brief: as §1

[30] = biological target: GlcNAc(b1-3)Gal(b1-4)GlcNAc(b1-3)Gal(b1-4)GlcNAc(b1-3)Gal(b1-4)GlcNAc(b1-3)Gal(b1-4)GlcNAc(b1-2)[GlcNAc(b1-3)Gal(b1-4)GlcNAc(b1-3)Gal(b1-4)GlcNAc(b1-3)Gal(b1-4)GlcNAc(b1-3)Gal(b1-4)GlcNAc(b1-6)]Man(a1-6)[GlcNAc(b1-3)Gal(b1-4)GlcNAc(b1-3)Gal(b1-4)GlcNAc(b1-3)Gal(b1-4)GlcNAc(b1-3)Gal(b1-4)GlcNAc(b1-2)Man(a1-3)]Man(b1-4)GlcNAc(b1-4)[Fuc(a1-6)]GlcNAc
Method in brief: as §1

[31] = biological target: GlcNAc(b1-3)Gal(b1-4)GlcNAc(b1-3)Gal(b1-4)GlcNAc(b1-3)GalNAc
Method in brief: as §1

[32] = biological target: GlcNAc(b1-3)Gal(b1-4)GlcNAc(b1-3)GalNAc
Method in brief: as §1

[33] = biological target: GlcNAc(b1-3)Gal(b1-4)GlcNAc(b1-3)[GlcNAc(b1-3)Gal(b1-4)GlcNAc(b1-3)]GalNAc
Method in brief: as §1

[34] = biological target: GlcNAc(b1-3)Gal(b1-4)GlcNAc(b1-6)[Gal(b1-3)]GalNAc
Method in brief: as §1

[35] = biological target: GlcNAc(b1-3)Gal(b1-4)GlcNAc(b1-6)[GlcNAc(b1-3)Gal(b1-3)]GalNAc
Method in brief: as §1

[36] = biological target: GlcNAc(b1-3)Gal(b1-4)GlcNAc(b1-6)[GlcNAc(b1-3)]Gal(b1-4)GlcNAc
Method in brief: as §1

[37] = biological target: GlcNAc(b1-3)GalNAc
Method in brief: as §1

[38] = biological target: GlcNAc(b1-3)Man
Method in brief: as §1

[39] = biological target: GlcNAc(b1-3)[GlcNAc(b1-4)][GlcNAc(b1-6)]GlcNAc
Method in brief: as §1

[40] = biological target: GlcNAc(b1-3)[GlcNAc(b1-6)]Gal(b1-4)GlcNAc
Method in brief: as §1

[41] = biological target: GlcNAc(b1-3)[GlcNAc(b1-6)]GalNAc
Method in brief: as §1

[42] = biological target: GlcNAc(b1-4)Gal(b1-4)GlcNAc
Method in brief: as §1

[43] = biological target: GlcNAc(b1-4)GlcNAc
Method in brief: as §1

[44] = biological target: GlcNAc(b1-4)GlcNAc(b1-4)GlcNAc
Method in brief: as §1

[45] = biological target: GlcNAc(b1-4)GlcNAc(b1-4)GlcNAc(b1-4)GlcNAc(b1-4)GlcNAc
Method in brief: as §1

B1: EULS2 M1 (Oryza sativa) (protein)
chain: MVYCRANPNYAMTARNGAVVLAPANPKDEYQHWIKDMRWSTSIKDEEGYPAFALVNKATGQAIKHSLGQSHPVRLVPYNPEVMDESVLWTESRDVGNGFRCIRMVNNIYLNFDAFHGDKYHGGVRDGTDIVLWKLCEGDNQRWKIQPYYILEQKLISEEDLNSAVDHHHHHH
[1]
  glycan array binding signal (z-score): -0.027
[2]
  glycan array binding signal (z-score): -0.045
[3]
  glycan array binding signal (z-score): -1.05
[4]
  glycan array binding signal (z-score): -0.183
[5]
  glycan array binding signal (z-score): -0.678
[6]
  glycan array binding signal (z-score): -0.646
[7]
  glycan array binding signal (z-score): -0.614
[8]
  glycan array binding signal (z-score): -0.526
[9]
  glycan array binding signal (z-score): 2.74
[10]
  glycan array binding signal (z-score): 0.133
[11]
  glycan array binding signal (z-score): -0.248
[12]
  glycan array binding signal (z-score): 0.449
[13]
  glycan array binding signal (z-score): -0.923
[14]
  glycan array binding signal (z-score): -0.114
[15]
  glycan array binding signal (z-score): -0.046
[16]
  glycan array binding signal (z-score): -0.563
[17]
  glycan array binding signal (z-score): 0.2
[18]
  glycan array binding signal (z-score): -0.197
[19]
  glycan array binding signal (z-score): -0.472
[20]
  glycan array binding signal (z-score): 1.22
[21]
  glycan array binding signal (z-score): -0.292
[22]
  glycan array binding signal (z-score): 1.1
[23]
  glycan array binding signal (z-score): 0.217
[24]
  glycan array binding signal (z-score): -0.196
[25]
  glycan array binding signal (z-score): -0.145
[26]
  glycan array binding signal (z-score): -0.036
[27]
  glycan array binding signal (z-score): -0.35
[28]
  glycan array binding signal (z-score): -0.217
[29]
  glycan array binding signal (z-score): 0.26
[30]
  glycan array binding signal (z-score): -0.332
[31]
  glycan array binding signal (z-score): -0.152
[32]
  glycan array binding signal (z-score): 0.139
[33]
  glycan array binding signal (z-score): 0.03
[34]
  glycan array binding signal (z-score): 0.017
[35]
  glycan array binding signal (z-score): 0.194
[36]
  glycan array binding signal (z-score): -0.02
[37]
  glycan array binding signal (z-score): -0.376
[38]
  glycan array binding signal (z-score): 0.199
[39]
  glycan array binding signal (z-score): -0.017
[40]
  glycan array binding signal (z-score): -0.56
[41]
  glycan array binding signal (z-score): 0.264
[42]
  glycan array binding signal (z-score): 0.075
[43]
  glycan array binding signal (z-score): 0.062
[44]
  glycan array binding signal (z-score): 0.138
[45]
  glycan array binding signal (z-score): -0.47
